# Inconclusive means that the source gave no clear call. Such entries were picked first, then a sample of the others. For some of these results: Potencies beside an inconclusive call are fits to weak or partial responses and may not hold up. Calls of active or inactive are those of the source. Calls follow the shape of the dose curve; as a rule, active = well fitted cell-killing curve with a large enough effect; inconclusive = small, poorly fitted or top-dose-only effect, or effect the other way; inactive = no such curve, though single readings can be large or run the other way.
# Key:
# [1] = Quantitative High-Throughput drug screen in 47 multiple myeloma cell lines against the NCATS MIPE library collection: KMS20_JCRB cell viability assay (AID 1918973); settings: CellTiter-Glo ATP, 48 h; viability (% of DMSO): at 45.8 µM (top of the series); also: nearly all actives have a fitted effect of over 45% in size
# Procedure, shortened: (§1)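 Viability readout: CellTiter-Glo luminescence following 5 min room-temperature incubation with reagent. Prior exposure: 48 h, 37C, humidified 5% CO2, 500 cells per well.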
# [2] = Quantitative High-Throughput drug screen in 47 multiple myeloma cell lines against the NCATS MIPE library collection: MMM1_PLB cell viability assay (AID 1918976); also: nearly all actives have a fitted effect of over 35% in size
# Procedure, shortened: (§2)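 Viability after 48 h drug exposure was measured as ATP-dependent luminescence. Cells, 500 per well, sat at 37 °C under 5% CO2; DMSO wells set 100%, media-only wells 0%.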
# [3] = Quantitative High-Throughput drug screen in 47 multiple myeloma cell lines against the NCATS MIPE library collection: MOLP8_DSMZ cell viability assay (AID 1918977); settings: MOLP8 myeloma viability, CellTiter-Glo ATP luminescence, 48 h; viability (% of control): at 45.8 µM (top of the series); also: nearly all actives have a fitted effect of over 45% in size
# Procedure, shortened: as §2
# [4] = Quantitative High-Throughput drug screen in 47 multiple myeloma cell lines against the NCATS MIPE library collection: MM1R_ATCC cell viability assay (AID 1918981); also: nearly all actives have a fitted effect of over 35% in size
# Procedure, shortened: as §2
# [5] = Quantitative High-Throughput drug screen in 47 multiple myeloma cell lines against the NCATS MIPE library collection: KMS28PE_JCRB cell viability assay (AID 1918983); also: nearly all actives have a fitted effect of over 35% in size
# Procedure, shortened: as §2
# [6] = Quantitative High-Throughput drug screen in 47 multiple myeloma cell lines against the NCATS MIPE library collection: KMS34_JCRB cell viability assay (AID 1918985); settings: KMS34 myeloma viability, CellTiter-Glo ATP luminescence, 48 h; viability, percent of control: at 45.8 µM (top of the series); also: nearly all actives have a fitted effect of over 40% in size
# Procedure, shortened: as §2
# [7] = Quantitative High-Throughput drug screen in 47 multiple myeloma cell lines against the NCATS MIPE library collection: OCIMY7_PLB cell viability assay (AID 1918987); settings: OCI-MY7 myeloma viability, CellTiter-Glo ATP, 48 h; viability (% of DMSO): at 45.8 µM (top of the series); also: nearly all actives have a fitted effect of over 65% in size
# Procedure, shortened: as §2
# [8] = Quantitative High-Throughput drug screen in 47 multiple myeloma cell lines against the NCATS MIPE library collection: OCIMY5_PLB cell viability assay (AID 1918988); settings: OCI-MY5 myeloma viability, ATP luminescence, 48 h; viability, % of control: at 45.8 µM (top of the series); also: nearly all actives have a fitted effect of over 65% in size;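 as to viability, % of control: 100% = DMSO-treated wells and 0% = wells with media alone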
# Procedure, shortened: as §2
# [9] = Quantitative High-Throughput drug screen in 47 multiple myeloma cell lines against the NCATS MIPE library collection: SKMM1_PLB cell viability assay (AID 1919863); settings: SKMM1 myeloma viability, CellTiter-Glo ATP, 48 h; viability: stronger effect = lower value; also: nearly all actives have a fitted effect of over 35% in size
# Procedure, shortened: as §2
# [10] = Quantitative High-Throughput drug screen in 47 multiple myeloma cell lines against the NCATS MIPE library collection: U266_ATCC cell viability assay (AID 1919864); settings: U266 myeloma viability, CellTiter-Glo ATP luminescence, 48 h; viability (% of DMSO control): at 45.8 µM (top of the series); also: nearly all actives have a fitted effect of over 35% in size
# Procedure, shortened: as §2
# [11] = Quantitative High-Throughput drug screen in 47 multiple myeloma cell lines against the NCATS MIPE library collection: XG6_PLB cell viability assay (AID 1919865); settings: XG6 myeloma viability, CellTiter-Glo ATP luminescence, 48 h; viability (% of control): at 45.8 µM (top of the series); also: nearly all actives have a fitted effect of over 40% in size
# Procedure, shortened: as §2
# [12] = Quantitative High-Throughput drug screen in 47 multiple myeloma cell lines against the NCATS MIPE library collection: XG1_PLB cell viability assay (AID 1919866); settings: CellTiter-Glo ATP, 48 h; viability: at 45.8 µM (top of the series); also: nearly all actives have a fitted effect of over 35% in size
# Procedure, shortened: as §2
# [13] = Quantitative High-Throughput drug screen in 47 multiple myeloma cell lines against the NCATS MIPE library collection: KMS21BM_JCRB cell viability assay (AID 1918974); settings: ATP luminescence, 48 h; viability: at 45.8 µM (top of the series) unless noted
# Procedure, shortened: as §1
# [14] = Quantitative High-Throughput drug screen in 47 multiple myeloma cell lines against the NCATS MIPE library collection: KMS26_JCRB cell viability assay (AID 1918975); settings: KMS26 myeloma cells viability, CellTiter-Glo ATP, 48 h; viability (% of DMSO): at 45.8 µM (top of the series); also: nearly all actives have a fitted effect of over 45% in size
# Procedure, shortened: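 Relative luminescence from CellTiter-Glo served as the viability signal, referenced to DMSO-treated (100%) and cell-free medium (0%) controls. Treatment lasted 48 hours at 37C with 500 cells per well.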
# [15] = Quantitative High-Throughput drug screen in 47 multiple myeloma cell lines against the NCATS MIPE library collection: MM1S_ATCC cell viability assay (AID 1918980); also: nearly all actives have a fitted effect of over 45% in size
# Procedure, shortened: as §2
# [16] = Quantitative High-Throughput drug screen in 47 multiple myeloma cell lines against the NCATS MIPE library collection: LP1_DSMZ cell viability assay (AID 1918982); settings: LP1 myeloma viability, CellTiter-Glo ATP luminescence, 48 h; viability (% of control): at 45.8 µM (top of the series); also: nearly all actives have a fitted effect of over 35% in size
# Procedure, shortened: as §2
# [17] = Quantitative High-Throughput drug screen in 47 multiple myeloma cell lines against the NCATS MIPE library collection: L363_DSMZ cell viability assay (AID 1918984); settings: L363 myeloma viability, CellTiter-Glo ATP luminescence, 48 h; viability (% of control): at 45.8 µM (top of the series); also: nearly all actives have a fitted effect of over 40% in size
# Procedure, shortened: as §2
# [18] = Quantitative High-Throughput drug screen in 47 multiple myeloma cell lines against the NCATS MIPE library collection: OPM1_PLB cell viability assay (AID 1918989); also: nearly all actives have a fitted effect of over 40% in size
# Procedure, shortened: as §2
# [19] = Quantitative High-Throughput drug screen in 47 multiple myeloma cell lines against the NCATS MIPE library collection: OCIMY1_PLB cell viability assay (AID 1918979); settings: OCI-MY1 myeloma viability, CellTiter-Glo ATP, 48 h; viability: at 45.8 µM (top of the series) unless noted; also: nearly all actives have a fitted effect of over 35% in size
# Procedure, shortened: as §2
# Potency is read from the fitted curve at half-maximal effect.
smiles,measurement,setting,value
CNC(=O)[C@H](CC1=CN=C2C=CCC=C12)NC(=O)[C@@H](CC(=O)NO)CC(C)C,Potency,[1],"inconclusive: 37.2 µM [cytotoxic, partial curve, poor fit]"
same,Potency,[2],"inconclusive: 0.003 µM [rising, full curve, poor fit]"
same,Potency,[3],"inconclusive: 2.96 µM [rising, partial curve, poor fit]"
same,Potency,[4],"inconclusive: 37.2 µM [cytotoxic, single point]"
same,Potency,[5],"inconclusive: 0.105 µM [rising, full curve, poor fit]"
same,Potency,[6],"inconclusive: 18.7 µM [cytotoxic, partial curve, poor fit]"
same,Potency,[7],"inconclusive: 0.0187 µM [rising, full curve, poor fit]"
same,"viability, % of control",[8],inconclusive: 114% [cytotoxic]
same,viability,[9],inactive: 109%
same,Potency,[10],"inconclusive: 10.5 µM [cytotoxic, partial curve, poor fit]"
same,Potency,[11],"inconclusive: 1.05 µM [cytotoxic, full curve, poor fit]"
same,Potency,[12],"inconclusive: 1.32 µM [cytotoxic, full curve, poor fit]"
CC[C@H]1OC(=O)[C@H](C)[C@@H](O[C@H]2C[C@@](C)(OC)[C@@H](O)[C@H](C)O2)[C@H](C)[C@@H](O[C@@H]2O[C@@H](C)C[C@H](N(C)C)[C@@H]2O)[C@](C)(O)C[C@@H](C)C(=O)[C@H](C)[C@@H](O)[C@]1(C)O,Potency,[13],inactive
same,Potency,[14],inactive
same,Potency,[2],"inconclusive: 0.0148 µM [rising, full curve, poor fit]"
same,Potency,[3],inactive
same,Potency,[15],inactive
same,Potency,[16],inactive
same,Potency,[5],"inconclusive: 0.003 µM [rising, full curve, poor fit]"
same,Potency,[17],inactive
same,Potency,[6],"inconclusive: 0.0074 µM [rising, full curve, poor fit]"
same,Potency,[7],"inconclusive: 16.6 µM [cytotoxic, partial curve, poor fit]"
same,Potency,[8],inactive
same,Potency,[9],"inconclusive: 0.0013 µM [rising, full curve, poor fit]"
same,Potency,[10],"inconclusive: 0.003 µM [rising, full curve, poor fit]"
same,Potency,[11],"inconclusive: 10.5 µM [cytotoxic, partial curve, poor fit]"
CCCOc1ccc(C(=O)OCCN(CC)CC)cc1N,Potency,[1],inactive
same,Potency,[2],"inconclusive: 0.0037 µM [rising, full curve, poor fit]"
same,Potency,[15],"inconclusive: 20.9 µM [cytotoxic, partial curve, poor fit]"
same,Potency,[5],inactive
same,Potency,[17],"inconclusive: 0.0332 µM [cytotoxic, full curve, poor fit]"
same,Potency,[6],inactive
same,Potency,[7],"inconclusive: 2.96 µM [rising, partial curve, poor fit]"
same,Potency,[8],inactive
same,Potency,[18],inactive
same,viability,[9],inactive: 118%
same,Potency,[10],"inconclusive: 0.0093 µM [rising, full curve]"
same,Potency,[12],inactive
Cn1cc(C[C@@H](N)C(=O)O)c2ccccc21,Potency,[1],"inconclusive: 18.2 µM [cytotoxic, single point]"
same,Potency,[15],inactive
same,Potency,[4],inconclusive: 0.0011 µM
same,Potency,[5],"inconclusive: 2.29 µM [cytotoxic, partial curve, poor fit]"
same,Potency,[17],"inconclusive: 0.363 µM [cytotoxic, full curve, poor fit]"
same,Potency,[7],"inconclusive: 0.002 µM [cytotoxic, full curve, poor fit]"
same,Potency,[10],"inconclusive: 12.9 µM [cytotoxic, partial curve, poor fit]"
same,Potency,[12],inactive
Cc1[nH]nc2ccc(-c3cncc(OC[C@@H](N)Cc4ccccc4)c3)cc12,Potency,[1],active: 1.18 µM
same,Potency,[5],active: 4.18 µM
same,Potency,[6],active: 4.69 µM
same,Potency,[18],active: 2.35 µM
same,Potency,[10],active: 0.059 µM
same,Potency,[11],active: 0.935 µM
Nc1ncnc2c1c(-c1cccc(OCc3ccccc3)c1)cn2C1CC(CN2CCC2)C1 (stereo not given),Potency,[1],active: 3.72 µM
same,Potency,[2],active: 2.96 µM
same,Potency,[19],"inconclusive: 2.35 µM [cytotoxic, full curve]"
same,Potency,[16],"inconclusive: 16.6 µM [cytotoxic, partial curve]"
same,Potency,[5],active: 3.32 µM
same,Potency,[17],active: 1.87 µM
same,Potency,[6],"inconclusive: 11.8 µM [cytotoxic, partial curve, poor fit]"
same,Potency,[8],active: 4.18 µM
same,Potency,[9],"inconclusive: 18.7 µM [cytotoxic, partial curve]"
same,Potency,[10],active: 16.6 µM
CCN(CC)Cc1ccc2cc(COC(=O)Nc3ccc(C(=O)NO)cc3)ccc2c1,Potency,[13],active: 0.0418 µM
same,Potency,[14],active: 0.743 µM
same,Potency,[2],"inconclusive: 0.526 µM [cytotoxic, full curve, poor fit]"
same,Potency,[3],active: 0.372 µM
same,Potency,[16],active: 0.935 µM
same,Potency,[17],active: 0.372 µM
same,Potency,[6],active: 0.418 µM
same,Potency,[7],active: 0.372 µM

# A section from the list above:
smiles,measurement,setting,value
CCCOc1ccc(C(=O)OCCN(CC)CC)cc1N,Potency,[7],"inconclusive: 2.96 µM [rising, partial curve, poor fit]"
same,Potency,[8],inactive
same,Potency,[18],inactive
same,viability,[9],inactive: 118%
same,Potency,[10],"inconclusive: 0.0093 µM [rising, full curve]"
same,Potency,[12],inactive
Cn1cc(C[C@@H](N)C(=O)O)c2ccccc21,Potency,[1],"inconclusive: 18.2 µM [cytotoxic, single point]"
same,Potency,[15],inactive
same,Potency,[4],inconclusive: 0.0011 µM
same,Potency,[5],"inconclusive: 2.29 µM [cytotoxic, partial curve, poor fit]"
same,Potency,[17],"inconclusive: 0.363 µM [cytotoxic, full curve, poor fit]"
same,Potency,[7],"inconclusive: 0.002 µM [cytotoxic, full curve, poor fit]"
same,Potency,[10],"inconclusive: 12.9 µM [cytotoxic, partial curve, poor fit]"
same,Potency,[12],inactive
Cc1[nH]nc2ccc(-c3cncc(OC[C@@H](N)Cc4ccccc4)c3)cc12,Potency,[1],active: 1.18 µM
same,Potency,[5],active: 4.18 µM
same,Potency,[6],active: 4.69 µM

# Reference: PubChem BioAssay (NCATS)
